# Laboratory results taken from the supplement of paper PMC12889115.
# Some of the results follow. Values are raw readings; no control value is given beside them.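 Primary screen: polymyxin B was added at a level permeabilizing Salmonella outer membranes while sparing inner membranes. DMSO wells, both with and without polymyxin B, established maximum growth. Plate-to-plate variation meant each plate was ranked on its own, and the lowest-OD600 compounds were selected as hits.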
# Test system: Salmonella enterica serovar Typhimurium SL1344
# Assay: bacterial growth OD600 after 18 h with compound and polymyxin B; higher = more bacterial growth (less inhibition)
# Conditions: 50 µM, Mueller-Hinton broth
Compound,bacterial growth OD600 (polymyxin B 1 µg/mL),bacterial growth OD600 (polymyxin B 0.75 µg/mL)
CCN(CC1CCCN(CCc2cccc(F)c2)C1)C(=O)C1CCN(C)CC1 (stereo not given),0.752,
O=C(c1ccc(F)cc1)N1CCC(C2(c3ccccn3)NC(=O)N(CCc3cccs3)C2=O)CC1 (stereo not given),,0.945
COc1ccc(CC(=O)NCC2CCCN(Cc3ccc(OC(F)(F)F)cc3)C2)cc1 (stereo not given),0.974,
CCC1CN(C(=O)C2CC2(CC)CC)Cc2ccc(Cl)cc2O1 (stereo not given),,0.2
Fc1ccccc1-c1noc2c1CN(Cc1ccc3nonc3c1)CC2,,0.385
CN(Cc1ccn[nH]1)C(=O)C1CCN(c2nc(-c3ccccc3)nc3c2CCC3)CC1,,0.599
OCCOc1ccc(CN2CCCC(Nc3ccc(F)c(F)c3)C2)cc1 (stereo not given),0.888,
COc1cccc(C(=O)NC2CC(=O)N(CCCc3ccccc3)C2)c1 (stereo not given),0.96,
Cc1oc(-c2ccccc2NC(=O)C2CCC2)nc1CNC(=O)c1cc(C2CC2)nc2ccccc12,,0.797
O=C(CCC1CCCN(Cc2cccnc2)C1)Nc1ccccc1F (stereo not given),0.926,
C=C(C)CN(CC)C(=O)CC1(c2ccccc2)CC(=O)N(CCCOc2cccnc2)C1=O (stereo not given),,0.713
CN(CC1(O)CCCN(Cc2ccc(F)c(F)c2)C1=O)C1CCCCC1 (stereo not given),0.979,
COCC(=O)Nc1cc(C(=O)N(C)Cc2cccs2)cc2ncn(CCc3ccccc3)c12,,0.862
CCC1CCCCN1C(=O)c1coc(COc2ccc3c(c2)OCO3)n1 (stereo not given),0.834,
CC(=O)Nc1cnn(-c2ccc(C(=O)N3CCC(Sc4ccc(F)cc4)CC3)cc2)c1,,0.464
O=S(=O)(c1cccc(F)c1)N(Cc1ccc(OCC2CCC2)cc1)C1CC1,,0.783
COc1ccc(CC2(CCC(=O)NCc3nc(-c4ccccc4)cs3)CCC(=O)N2)c(F)c1 (stereo not given),,0.789
CCN(CC1CCCO1)C1CCN(c2nc(C)c3cc4c(cc3n2)CCC4)CC1 (stereo not given),,0.996
Cc1ccc(C(=O)Nc2ccc(N3CCC(NCc4scnc4-c4ccccc4)CC3)cc2)c(C)c1,,0.698
CCOC(=O)C1(Cc2cccc(Cl)c2)CCCN(C(=O)CCc2cnn(C)c2)C1 (stereo not given),0.778,
COc1cc(C)c(CN2CCC(C(Cc3ccccc3)N(C)C(=O)c3ccn(C)n3)CC2)cc1C (stereo not given),,0.868
CCOC(=O)C1(Cc2cccc(OC)c2)CCCN(S(=O)(=O)c2cccc(F)c2)C1 (stereo not given),0.853,
COc1ccc(C2(CC(=O)N3CCC(c4nc5ccccc5o4)CC3)CC(=O)N(C3CC3)C2=O)cc1 (stereo not given),,0.853
Cc1cnc(C(=O)NC2CC(=O)N(Cc3cccc4ccccc34)C2)cn1 (stereo not given),0.904,
Cc1ccc(CCC(=O)N2CCCC(N3CCN(Cc4ccc5c(c4)OCO5)CC3)C2)cc1 (stereo not given),0.823,
Cc1nn(-c2ccccc2)c(C)c1CC(=O)N1CCC(n2c(C3CCCO3)nc3cc(C(F)(F)F)ccc32)CC1 (stereo not given),,0.944
Cc1nc(C)c(CC(=O)N2CCCC(Nc3ccccc3)C2)s1 (stereo not given),,0.825
Cc1noc(C)c1C(=O)N1CCC(C2CCN(c3ncccn3)CC2)C1 (stereo not given),,0.733
CCOC(=O)C1(CCOc2ccccc2)CCN(Cc2ccc(OC)cc2)CC1,0.794,
O=C(NCc1ccccn1)c1cccc(OC2CCN(C(=O)c3ccsc3)CC2)c1,0.992,

# In the list so far, these have a Cl atom:
Compound,bacterial growth OD600 (polymyxin B 1 µg/mL),bacterial growth OD600 (polymyxin B 0.75 µg/mL)
CCC1CN(C(=O)C2CC2(CC)CC)Cc2ccc(Cl)cc2O1 (stereo not given),,0.2
CCOC(=O)C1(Cc2cccc(Cl)c2)CCCN(C(=O)CCc2cnn(C)c2)C1 (stereo not given),0.778,
